Where “and” joins values, the source holds several entries; their conditions need not be identical. Equal entries are not always repeated. The campaign covered roughly 400,000 compounds. About 13,000 (3.2%) were called active. The inconclusive results got no clear call from the source; some entries with a clear call stand among them for comparison. The call rests on the fitted dose curve; in most records, active means well fitted cell-killing curve with a large enough effect; inconclusive means small, poorly fitted or top-dose-only effect, or effect the other way; inactive means flat fitted curve, though single readings scatter. Potencies of inconclusive entries are doubtful fits and often do not repeat.
Assay: qHTS assay for MDR1-selective chemotherapeutics: Primary screen using the drug-selected MDR subline cells KB-V1; further: nearly all actives have a fitted effect of over 60% in size
Details: KB-V1 MDR cells viability, CellTiter-Glo, 72 h; series mostly up to 46.1 µM
How it was run: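 Potencies derive from concentration-effect curves fitted to normalized luminescence (CellTiter-Glo) of KB-V1 cells treated for 72 h at 37 degrees C in phenol-red-free DMEM containing 10% FBS.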
Potency means the concentration at half of the fitted maximal effect.

Question: Which Potency does the source give for `Cc1cc(S(=O)(=O)N2CCN(Cc3ccc4c(c3)OCO4)CC2)cc(C)c1N1CCCC1=O` here?
Answer: Its Potency is inconclusive: 23.1 µM [cytotoxic, single point].

Question: With `Cc1ccnc(NC(=O)CCCOc2cc(=O)n(C)c3ccccc23)c1` as the compound, how does the Potency read?
Answer: Its Potency is active: 8.2 µM and inconclusive: 18.4 µM [cytotoxic, partial curve].

Question: Which Potency does the source give for `O=S(=O)(c1ccc(F)c(F)c1)N1CCN(c2ncccn2)CC1` here?
Answer: The Potency was “inactive”.

Question: Which Potency does the source give for `Cc1cc(C)nc(NS(=O)(=O)c2cccs2)c1` here?
Answer: The Potency was inconclusive: 16.4 µM [rising, single point].

Question: With `Cc1cc(C(F)(F)F)nn1Cc1n[nH]c(=S)n1-c1cccc(Cl)c1` as the compound, how does the Potency read?
Answer: Its Potency is inconclusive: 18.4 µM [cytotoxic, single point].

Question: For `COc1ccccc1N1CCN(C(=O)c2ccc(CS(=O)(=O)c3ccccc3OC)o2)CC1`, which Potency is on record?
Answer: The Potency was inconclusive: 16.4 µM [cytotoxic, single point].

Question: With `COc1cccc(NC(=O)CN(C)C(=O)c2ccc(S(=O)(=O)Nc3ccccc3C)cc2)c1` as the compound, how does the Potency read?
Answer: Its Potency is “inactive”.

Question: With `CCOc1ccc(NC(=O)CN2CCN(CC(=O)Nc3ccccc3OC)CC2)cc1` as the compound, how does the Potency read?
Answer: Its Potency is “inactive”.

Question: Which Potency does the source give for `Cc1cccc(C(=O)NC(=S)N2CCN(C)CC2)c1` here?
Answer: The Potency was “inactive”.

Question: Which Potency does the source give for `Cc1ccc(C2=NCCn3c2c2ccc([N+](=O)[O-])cc2[n+]3[O-])cc1` here?
Answer: The Potency was inconclusive: 13 µM [cytotoxic, partial curve, poor fit].

Question: Which Potency does the source give for `COc1cccc(C(=O)NC(=S)Nc2ccc([N+](=O)[O-])cc2C)c1` here?
Answer: The Potency was inconclusive: 13 µM [cytotoxic, partial curve].

Question: For `CC1CCCCC1NC(=O)Cn1cc([N+](=O)[O-])ccc1=O` (centres undefined), which Potency is on record?
Answer: The Potency was “inactive”.

Question: Which Potency does the source give for `O=C(O)CC1S/C(=N/N=C/C=C/c2ccccc2[N+](=O)[O-])NC1=O` (centres undefined) here?
Answer: The Potency was inconclusive: 14.6 µM [rising, partial curve, poor fit].

Question: Which Potency does the source give for `N#CC1(NC(=O)CSc2nc3ccccc3s2)CCCCC1` here?
Answer: Its Potency is active: 16.4 µM.

Question: With `Cn1c(-c2ccccc2)cc2c3no[n+]([O-])c3ccc21` as the compound, how does the Potency read?
Answer: The Potency was inconclusive: 16.4 µM [cytotoxic, partial curve].

Question: For `Cc1ccc(S(=O)(=O)N2CCOCC2)cc1NC(=O)CSc1ccc(Cl)cc1`, which Potency is on record?
Answer: Its Potency is inconclusive: 23.1 µM [cytotoxic, single point].

Question: For `COCCCNC(=O)CCc1ccccc1`, which Potency is on record?
Answer: Its Potency is inconclusive: 29.1 µM [rising, single point].

Question: Which Potency does the source give for `COc1ccc(N2CCN(c3cc(C(=O)Nc4cc(OC)c(OC)c(OC)c4)ncn3)CC2)cc1OC` here?
Answer: Its Potency is inconclusive: 20.6 µM [cytotoxic, partial curve].

Question: With `CCC(=O)NC(=S)Nc1ccc(NC(=O)CC)cc1` as the compound, how does the Potency read?
Answer: Its Potency is inconclusive: 29.1 µM [rising, single point].
